Some of the results follow. Hit calls seldom repeat between salt and free forms of one compound.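 Kinases, fused to nanoluciferase, were expressed in K562 cells; luminescence was measured every 4 h from 2 to 18 h as percent of control (DMSO = 100%, positive control = 0%). A time point is decreased if signal falls significantly (2 sigma). Hits were called by the authors by a rule that is not shown; the count of time points alone does not decide it.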
Key:
Assay in all cases: number of time points (of 5) at which kinase-Nluc abundance scored as decreased, DMSO-normalised (count); higher = more persistent destabilization
Conditions in all cases: K562; 2-18 h
ALK = ALK (UniProt Q9UM73)
ARAF = ARAF (UniProt P10398)
AURKA = AURKA (UniProt O14965)
AURKB = AURKB (UniProt Q96GD4)
AURKC = AURKC (UniProt Q9UQB9)
BLK = BLK (UniProt P51451)
BMX = BMX (UniProt P51813)
BRAF = BRAF (UniProt P15056)
BRAF_V600E = tested on: BRAF_V600E
BTK = BTK (UniProt Q06187)

Chains of the proteins cited; added tags and fusions are not shown. Lines headed by an entry give the natural chain unless they say otherwise; changes in a name come on top.
UniProt Q9UM73: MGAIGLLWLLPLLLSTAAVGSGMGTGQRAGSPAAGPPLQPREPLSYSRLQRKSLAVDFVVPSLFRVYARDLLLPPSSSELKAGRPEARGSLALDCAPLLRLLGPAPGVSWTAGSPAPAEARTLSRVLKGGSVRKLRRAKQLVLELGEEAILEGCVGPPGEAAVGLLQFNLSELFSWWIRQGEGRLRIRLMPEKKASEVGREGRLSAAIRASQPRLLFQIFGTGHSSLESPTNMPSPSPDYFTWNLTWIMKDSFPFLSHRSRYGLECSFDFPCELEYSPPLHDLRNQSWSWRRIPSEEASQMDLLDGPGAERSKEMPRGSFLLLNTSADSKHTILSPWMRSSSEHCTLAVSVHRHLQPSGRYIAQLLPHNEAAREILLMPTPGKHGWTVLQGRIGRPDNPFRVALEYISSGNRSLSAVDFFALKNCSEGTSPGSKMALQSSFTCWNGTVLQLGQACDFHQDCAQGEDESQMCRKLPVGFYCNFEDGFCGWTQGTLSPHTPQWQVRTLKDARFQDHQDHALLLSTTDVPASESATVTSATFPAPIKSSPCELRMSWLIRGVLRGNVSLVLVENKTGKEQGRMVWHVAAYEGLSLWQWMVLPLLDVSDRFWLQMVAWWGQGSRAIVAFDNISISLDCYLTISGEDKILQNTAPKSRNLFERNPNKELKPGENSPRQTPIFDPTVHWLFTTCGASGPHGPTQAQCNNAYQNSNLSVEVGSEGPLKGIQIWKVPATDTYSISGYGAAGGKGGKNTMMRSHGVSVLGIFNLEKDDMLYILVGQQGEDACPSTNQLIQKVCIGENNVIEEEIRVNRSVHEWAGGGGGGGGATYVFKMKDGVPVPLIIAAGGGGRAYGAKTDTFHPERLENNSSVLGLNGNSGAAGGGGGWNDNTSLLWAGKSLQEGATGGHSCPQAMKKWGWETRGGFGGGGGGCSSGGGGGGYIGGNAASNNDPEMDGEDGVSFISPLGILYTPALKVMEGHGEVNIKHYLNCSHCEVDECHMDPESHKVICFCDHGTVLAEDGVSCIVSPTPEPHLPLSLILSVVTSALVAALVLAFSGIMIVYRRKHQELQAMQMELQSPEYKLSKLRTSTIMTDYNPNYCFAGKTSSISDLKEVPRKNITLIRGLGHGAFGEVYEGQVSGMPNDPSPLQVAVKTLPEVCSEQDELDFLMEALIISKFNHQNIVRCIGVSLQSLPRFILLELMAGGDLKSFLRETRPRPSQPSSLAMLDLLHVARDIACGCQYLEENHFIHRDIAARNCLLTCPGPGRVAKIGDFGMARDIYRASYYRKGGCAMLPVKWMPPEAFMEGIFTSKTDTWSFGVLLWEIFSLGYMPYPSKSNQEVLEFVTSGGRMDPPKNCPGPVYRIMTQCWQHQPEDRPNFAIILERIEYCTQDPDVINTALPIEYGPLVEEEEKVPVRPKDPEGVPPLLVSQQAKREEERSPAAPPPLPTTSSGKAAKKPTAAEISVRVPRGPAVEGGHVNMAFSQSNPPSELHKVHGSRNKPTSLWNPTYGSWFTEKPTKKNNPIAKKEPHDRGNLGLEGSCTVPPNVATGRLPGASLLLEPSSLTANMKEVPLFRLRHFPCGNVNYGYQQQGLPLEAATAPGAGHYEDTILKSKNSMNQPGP
UniProt P10398: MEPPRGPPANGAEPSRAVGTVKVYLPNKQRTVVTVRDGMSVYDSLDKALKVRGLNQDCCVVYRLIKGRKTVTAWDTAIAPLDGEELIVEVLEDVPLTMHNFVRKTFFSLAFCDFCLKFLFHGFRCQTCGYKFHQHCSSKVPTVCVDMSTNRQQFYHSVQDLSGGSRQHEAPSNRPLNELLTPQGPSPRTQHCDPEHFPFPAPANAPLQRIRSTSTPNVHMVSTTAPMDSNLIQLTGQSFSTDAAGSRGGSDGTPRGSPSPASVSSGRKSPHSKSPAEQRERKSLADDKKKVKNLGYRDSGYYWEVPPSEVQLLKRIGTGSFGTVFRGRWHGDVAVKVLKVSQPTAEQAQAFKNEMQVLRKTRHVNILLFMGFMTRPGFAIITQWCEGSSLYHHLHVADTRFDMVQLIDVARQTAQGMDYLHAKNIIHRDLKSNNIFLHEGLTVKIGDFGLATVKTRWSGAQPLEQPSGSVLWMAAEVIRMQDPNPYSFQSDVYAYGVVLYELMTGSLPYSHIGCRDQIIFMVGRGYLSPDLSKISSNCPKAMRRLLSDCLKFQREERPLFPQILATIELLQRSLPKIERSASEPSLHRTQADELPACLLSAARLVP
UniProt O14965: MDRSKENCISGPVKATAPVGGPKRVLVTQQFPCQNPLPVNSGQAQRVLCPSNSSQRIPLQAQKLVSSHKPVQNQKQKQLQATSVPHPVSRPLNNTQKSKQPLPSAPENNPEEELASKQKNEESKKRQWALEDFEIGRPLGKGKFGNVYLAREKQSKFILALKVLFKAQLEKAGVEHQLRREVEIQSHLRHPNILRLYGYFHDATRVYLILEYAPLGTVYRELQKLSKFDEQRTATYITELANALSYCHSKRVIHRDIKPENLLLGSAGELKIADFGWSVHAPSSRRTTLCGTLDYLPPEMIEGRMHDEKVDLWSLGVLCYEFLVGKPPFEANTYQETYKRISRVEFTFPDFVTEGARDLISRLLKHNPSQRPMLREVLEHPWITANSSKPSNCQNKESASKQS
UniProt Q96GD4, whole entry: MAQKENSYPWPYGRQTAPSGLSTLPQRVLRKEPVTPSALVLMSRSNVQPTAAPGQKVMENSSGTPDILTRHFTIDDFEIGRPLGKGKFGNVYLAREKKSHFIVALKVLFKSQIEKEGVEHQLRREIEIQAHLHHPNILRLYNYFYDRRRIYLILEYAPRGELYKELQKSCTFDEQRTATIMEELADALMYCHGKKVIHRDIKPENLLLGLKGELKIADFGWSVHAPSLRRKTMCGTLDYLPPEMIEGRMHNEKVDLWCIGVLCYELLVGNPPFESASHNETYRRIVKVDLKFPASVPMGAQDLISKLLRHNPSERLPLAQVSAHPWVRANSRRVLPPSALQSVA
UniProt Q9UQB9: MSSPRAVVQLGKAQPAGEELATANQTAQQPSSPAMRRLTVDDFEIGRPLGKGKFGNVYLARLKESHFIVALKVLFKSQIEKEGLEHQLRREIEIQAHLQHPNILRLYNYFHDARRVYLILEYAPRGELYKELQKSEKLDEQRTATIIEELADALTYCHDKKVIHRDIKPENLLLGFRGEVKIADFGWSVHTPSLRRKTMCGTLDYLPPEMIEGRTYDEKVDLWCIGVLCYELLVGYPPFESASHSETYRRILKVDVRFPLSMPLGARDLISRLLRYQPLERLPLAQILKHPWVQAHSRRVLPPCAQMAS
UniProt P51451: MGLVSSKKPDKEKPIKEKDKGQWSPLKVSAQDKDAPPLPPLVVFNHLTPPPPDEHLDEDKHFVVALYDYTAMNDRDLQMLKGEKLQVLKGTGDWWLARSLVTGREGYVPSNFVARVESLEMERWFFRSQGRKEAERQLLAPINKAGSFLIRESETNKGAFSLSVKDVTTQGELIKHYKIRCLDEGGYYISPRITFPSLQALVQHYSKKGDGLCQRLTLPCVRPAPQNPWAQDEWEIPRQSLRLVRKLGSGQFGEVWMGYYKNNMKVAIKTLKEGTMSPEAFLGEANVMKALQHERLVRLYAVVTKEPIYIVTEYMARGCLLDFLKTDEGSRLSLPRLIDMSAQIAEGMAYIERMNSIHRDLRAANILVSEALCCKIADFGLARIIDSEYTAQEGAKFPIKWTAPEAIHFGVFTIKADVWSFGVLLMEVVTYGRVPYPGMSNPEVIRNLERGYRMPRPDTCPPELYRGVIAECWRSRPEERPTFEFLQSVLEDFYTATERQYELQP
UniProt P51813: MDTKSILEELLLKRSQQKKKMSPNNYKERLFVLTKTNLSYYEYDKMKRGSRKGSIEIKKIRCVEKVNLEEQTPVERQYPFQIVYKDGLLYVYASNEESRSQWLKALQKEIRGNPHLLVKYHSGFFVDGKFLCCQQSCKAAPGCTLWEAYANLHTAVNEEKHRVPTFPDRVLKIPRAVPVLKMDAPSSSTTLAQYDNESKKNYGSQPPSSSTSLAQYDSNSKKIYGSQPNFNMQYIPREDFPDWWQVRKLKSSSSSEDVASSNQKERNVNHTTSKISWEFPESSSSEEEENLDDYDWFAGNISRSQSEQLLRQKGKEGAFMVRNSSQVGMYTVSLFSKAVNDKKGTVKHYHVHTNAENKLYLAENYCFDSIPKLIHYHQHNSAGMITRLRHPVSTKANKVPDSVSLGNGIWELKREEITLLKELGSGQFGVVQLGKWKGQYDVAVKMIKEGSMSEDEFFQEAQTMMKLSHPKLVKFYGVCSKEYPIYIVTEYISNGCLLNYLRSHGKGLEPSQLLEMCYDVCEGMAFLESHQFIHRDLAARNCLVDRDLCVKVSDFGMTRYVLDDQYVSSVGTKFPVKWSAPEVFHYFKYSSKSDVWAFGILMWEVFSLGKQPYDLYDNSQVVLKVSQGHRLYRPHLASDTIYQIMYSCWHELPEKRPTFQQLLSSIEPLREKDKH
UniProt P15056, whole entry, looked up: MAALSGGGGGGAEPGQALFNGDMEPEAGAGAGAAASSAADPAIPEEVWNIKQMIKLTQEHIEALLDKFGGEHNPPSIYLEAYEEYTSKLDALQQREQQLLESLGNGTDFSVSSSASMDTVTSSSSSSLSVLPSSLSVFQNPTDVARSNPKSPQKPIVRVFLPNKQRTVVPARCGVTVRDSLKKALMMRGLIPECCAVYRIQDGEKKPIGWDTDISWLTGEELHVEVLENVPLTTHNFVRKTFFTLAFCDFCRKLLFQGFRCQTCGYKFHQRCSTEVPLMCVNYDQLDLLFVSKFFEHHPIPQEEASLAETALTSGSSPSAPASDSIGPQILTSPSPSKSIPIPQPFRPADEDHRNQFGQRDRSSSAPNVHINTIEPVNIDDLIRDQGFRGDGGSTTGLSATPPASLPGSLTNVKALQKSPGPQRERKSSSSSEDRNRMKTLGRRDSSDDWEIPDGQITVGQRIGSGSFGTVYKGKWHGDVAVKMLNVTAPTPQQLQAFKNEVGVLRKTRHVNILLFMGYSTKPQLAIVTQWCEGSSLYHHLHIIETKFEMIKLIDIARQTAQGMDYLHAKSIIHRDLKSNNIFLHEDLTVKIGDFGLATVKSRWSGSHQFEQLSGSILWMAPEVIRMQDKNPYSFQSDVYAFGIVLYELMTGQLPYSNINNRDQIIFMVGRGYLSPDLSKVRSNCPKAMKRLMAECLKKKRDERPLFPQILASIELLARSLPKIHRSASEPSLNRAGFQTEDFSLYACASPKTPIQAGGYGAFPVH
UniProt Q06187: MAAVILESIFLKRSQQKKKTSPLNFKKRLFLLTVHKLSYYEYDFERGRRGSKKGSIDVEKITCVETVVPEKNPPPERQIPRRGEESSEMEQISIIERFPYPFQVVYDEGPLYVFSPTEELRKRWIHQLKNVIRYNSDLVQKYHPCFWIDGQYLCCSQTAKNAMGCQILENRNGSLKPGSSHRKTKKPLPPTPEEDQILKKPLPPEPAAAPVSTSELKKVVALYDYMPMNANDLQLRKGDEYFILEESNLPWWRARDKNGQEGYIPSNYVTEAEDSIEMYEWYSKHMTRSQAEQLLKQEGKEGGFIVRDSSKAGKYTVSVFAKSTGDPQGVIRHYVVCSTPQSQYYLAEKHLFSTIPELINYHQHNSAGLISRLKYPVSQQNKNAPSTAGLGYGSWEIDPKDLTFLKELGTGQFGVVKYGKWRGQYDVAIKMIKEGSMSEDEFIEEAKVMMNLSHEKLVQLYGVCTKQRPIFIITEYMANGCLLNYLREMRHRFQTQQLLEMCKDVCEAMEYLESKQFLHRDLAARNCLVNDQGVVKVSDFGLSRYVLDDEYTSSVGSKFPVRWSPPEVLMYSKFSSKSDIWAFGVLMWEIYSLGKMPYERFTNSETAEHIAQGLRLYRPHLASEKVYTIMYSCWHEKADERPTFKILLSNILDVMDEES

| Structure (SMILES) | number of time points (ALK) | number of time points (ARAF) | number of time points (AURKA) | number of time points (AURKB) | number of time points (AURKC) | number of time points (BLK) | number of time points (BMX) | number of time points (BRAF) | number of time points (BRAF_V600E) | number of time points (BTK) |
| --- | --- | --- | --- | --- | --- | --- | --- | --- | --- | --- |
| CC1(C)Cc2c(sc(NC(=S)NC(=O)c3ccccc3)c2C(=O)O)CO1 (10 µM) | 0 | 0 | 0 | 0 | 0 | 0 | 2 | 0 | 0 | 0 |
| Cc1cnc(-c2ccc(-c3ccc(NC(=O)Nc4cccc(C(F)(F)F)c4)cc3F)c3c2C(=O)NC3)[nH]1 (10 µM) | 0 | 0 | 0 | 0 | 0 | 0 | 2 | 2 | 0 | 0 |
| Cn1cc(C2=C(c3cccc(N)c3)C(=O)NC2=O)c2ccccc21 (10 µM) | 0 | 0 | 0 | 0 | 0 | 0 | 0 | 0 | 0 | 0 |
| CC(=O)c1c(C)c2cnc(Nc3ccc(N4CCN(C(=O)CNc5cccc6c5C(=O)N(C5CCC(=O)NC5=O)C6=O)CC4)cn3)nc2n(C2CCCC2)c1=O (stereo not given) (10 µM) | 0 | 0 | 0 | 0 | 0 | 0 | 0 | 0 | 0 | 0 |
| COc1cc(N2CCOCC2)ccc1Nc1ncc(Cl)c(Nc2ccccc2NS(C)(=O)=O)n1 (2.5 µM) | 0 | 0 | 0 | 0 | 0 | 0 | 0 | 0 | 0 | 0 |
| C[C@@H]1CCNC(=O)c2cc3ccc(C(=O)Nc4nc5ccccc5n4CCCN(C)C)cc3n21 (10 µM) | 0 | 0 | 0 | 0 | 0 | 0 | 0 | 0 | 0 | 0 |
| NC1=NCCN1CC(=O)O [Cyclocreatine] (10 µM) | 0 | 0 | 0 | 0 | 0 | 0 | 0 | 0 | 0 | 0 |
| CN(c1ccc(NC(=O)Nc2ccc(OC(F)(F)F)cc2)cc1)c1ccnc(Nc2cccc(S(N)(=O)=O)c2)n1 (2.5 µM) | 2 | 0 | 3 | 1 | 0 | 0 | 3 | 1 | 3 | 1 |
| Cc1cc2sc(NC(=O)Cc3ccccc3)nc2cc1Cl (10 µM) | 0 | 0 | 0 | 0 | 0 | 0 | 0 | 0 | 0 | 0 |
| CC(C)S(=O)(=O)c1ccc2nccc(Nc3ccc4scnc4c3)c2c1 (10 µM) | 0 | 0 | 0 | 0 | 0 | 0 | 0 | 0 | 1 | 0 |
| C#Cc1cccc(Nc2ncnc3cc(OC)c(OCCCCCCC(=O)NO)cc23)c1 (2.5 µM) | 0 | 0 | 0 | 0 | 0 | 0 | 0 | 0 | 0 | 0 |
| COc1ccc(/C=C/C(=O)C2(C(=O)/C=C/c3ccc(OC)c(OC)c3)CCCCC2)cc1OC (2.5 µM) | 0 | 0 | 0 | 0 | 0 | 0 | 0 | 0 | 1 | 0 |
| CNc1cc(Nc2cccn(-c3ccccn3)c2=O)nn2c(C(=O)N[C@@H]3C[C@@H]3F)cnc12 (2.5 µM) | 0 | 0 | 0 | 0 | 0 | 0 | 0 | 0 | 0 | 0 |
| Cc1cccc(-c2[nH]c(C(C)(C)C)nc2-c2ccc3nccnc3c2)n1 (10 µM) | 0 | 0 | 0 | 0 | 0 | 0 | 0 | 0 | 0 | 0 |
| O=C(CNc1cccc(Cl)c1)NC1CCCN(c2ncnc3[nH]ccc23)C1 (stereo not given) (10 µM) | 0 | 0 | 0 | 0 | 0 | 0 | 0 | 0 | 0 | 0 |
| C[C@@H]1O[C@@H](O[C@@H]2[C@@H](O)[C@H](OCCc3ccc(O)c(O)c3)O[C@H](CO)[C@H]2OC(=O)/C=C/c2ccc(O)c(O)c2)[C@H](O)[C@H](O)[C@H]1O [Verbascoside] (10 µM) | 0 | 0 | 0 | 0 | 0 | 0 | 0 | 0 | 0 | 0 |
| O=C(N[C@@H](C1CC1)C(F)(F)F)c1cc(-c2cnn3cc(-c4ccc(F)cc4)cnc23)cs1 (10 µM) | 0 | 0 | 0 | 0 | 0 | 0 | 0 | 0 | 0 | 0 |
| CN1C(=O)[C@@H](NC(=O)c2n[nH]c(Cc3ccccc3)n2)COc2ccccc21 (10 µM) | 0 | 0 | 0 | 0 | 0 | 0 | 0 | 0 | 0 | 0 |
| CC(C)C[C@@H](C(=O)Nc1ccn(C[C@@H](O)CO)n1)N1CC(Oc2ccccc2Cl)=CC1=O [Dorzagliatin] (10 µM) | 0 | 0 | 0 | 0 | 0 | 0 | 0 | 0 | 0 | 0 |
| C[C@@H]1CC(=O)c2c(ccc3c2C(=O)c2cccc(O)c2C3=O)C1 [Ochromycinone] (10 µM) | 0 | 0 | 0 | 0 | 0 | 0 | 0 | 0 | 0 | 0 |
| Cc1c(-c2ccc(C(N)=O)c3[nH]c4cc(C(C)(C)O)ccc4c23)cccc1-n1cnc2ccccc2c1=O (2.5 µM) | 0 | 0 | 0 | 0 | 0 | 0 | 0 | 0 | 0 | 0 |
| O=C1O[C@H]([C@@H](O)CO)C(O)=C1OP(=O)(O)O [2-Phospho-L-ascorbic acid (trisodium)] (10 µM) | 0 | 0 | 0 | 0 | 0 | 0 | 0 | 0 | 0 | 0 |
| O=[N+]([O-])c1ccc2c(c1)S(=O)(=O)C=C2 [Stattic] (2.5 µM) | 0 | 0 | 0 | 0 | 0 | 2 | 4 | 0 | 3 | 0 |

A section of the results above, for reference:

| Structure (SMILES) | number of time points (ALK) | number of time points (ARAF) | number of time points (AURKA) | number of time points (AURKB) | number of time points (AURKC) | number of time points (BLK) | number of time points (BMX) | number of time points (BRAF) | number of time points (BRAF_V600E) | number of time points (BTK) |
| --- | --- | --- | --- | --- | --- | --- | --- | --- | --- | --- |
| COc1cc(N2CCOCC2)ccc1Nc1ncc(Cl)c(Nc2ccccc2NS(C)(=O)=O)n1 (2.5 µM) | 0 | 0 | 0 | 0 | 0 | 0 | 0 | 0 | 0 | 0 |
| C[C@@H]1CCNC(=O)c2cc3ccc(C(=O)Nc4nc5ccccc5n4CCCN(C)C)cc3n21 (10 µM) | 0 | 0 | 0 | 0 | 0 | 0 | 0 | 0 | 0 | 0 |

— the supplement of paper PMC12823440, “Inhibitors supercharge kinase turnover through native proteolytic circuits” (Nature, 2025)
